Experimental data: US20230141981A1, “NOVEL COMPOUNDS AND COMPOSITION FOR TARGETED THERAPY OF KIDNEY-ASSOCIATED CANCERS” (SHANGHAI MICURX PHARMACEUTICALS CO., LTD, priority 2020, published 2023)
Entries after “also recorded” stand apart in the source; their conditions may differ.

Key:
HK-2 = assay: In vitro inhibition of non-cancer kidney cells; assay type: cell-based; conditions: Homo sapiens
Experimental: (§1) The anticancer activity in vitro (potency) of exemplary compounds provided herein are illustrated by the data in Table 3. Therein, Caki-1 is a human clear cell renal cell carcinoma (ccRCC) line. The ACTHN cell line was derived from the pleural effusion of a patient with metastatic renal carcinoma. The 786-O cell line is a hypertriploid renal cancer cell carcinoma cell line. Generally, cells were plated into […] microplates and pre-incubated for 24 h. Subsequently, the test compound solutions were added, and cells growth inhibition analyzed with 9-point data plot. After 72 h of the incubation, the number and proportion of the viable cells was determined by CTG assay, and IC50 values calculated.

[1] = Mouse PK: axitinib concentration in blood plasma and kidney tissue post-administration; assay type: in vivo; conditions: oral gavage, single dose 10 mg/kg
Description: Preferential accumulation of compounds provided herein in kidneys (or near the site of a kidney cancer) may be evaluated by pharmacokinetic (PK) tests, such as in a standard rat PK test. PK data are generally used to establish the key parameters predictive of the therapy outcome, such as drug concentration (C) at given time points, drug concentration at the target tissue(s) (CTarget), area under the curve (AUC) for a plot monitoring the change in the systemic drug concentration over time, and other parameters. Thus, drug concentration in organ (or body compartment) affected by cancer is important for effective action of anticancer agents (as described, for example, by Zhang et al. in Drug Metabolism and Disposition. 2019, vol. 47, p. 1122).
Representative compounds provided herein have been tested in a rodent PK model of intravenous administration performed analogously to methods described in the monograph Current Protocols in Pharmacology, 2005, 7.1.1-7.1.26, John Wiley & Sons, Inc.
In PK studies, the levels (concentration) of a therapeutic drug is determined in key body compartments, such as blood and select organ tissues, is determined over a given time course. The levels of an active compound in the organ affected by a disease is of particular importance, since such a compound is intended to target the disease therein. For therapy of renal cancers, the targeted organ is kidney.
Additional PK data in rodents for other compounds provided herein are illustrated in the Table 2 below. The data indicated a targeted delivery of anticancer drug axitinib, preferentially released from these compounds into kidneys.

Caki-1 = assay: In vitro inhibition of cancer cells, CTG assay, 72 h; assay type: cell-based; conditions: Homo sapiens, Caki-1, 72 h incubation
Description: (§2) In vitro activity of compounds provided herein may be assessed by standard testing procedures using various cancer cell lines (alongside normal cell comparators), such as described, for example, in ACS Pharmacol. Transl. Sci. 2019, vol. 2, p. 18; J. Med. Chem. 2018, vol. 61, p. 5304; and methods in references cited therein.
as §1

786-O = assay: as above; assay type: cell-based; conditions: Homo sapiens, 786-0, 72 h incubation
Description: as §2, §1

Kidney Tissue Conc. (axitinib) ([1]; T = 4 h): T = 4 h: BLQ^c | Kidney Tissue Conc. (axitinib) ([1]; T = 4 h, listed as axitinib): BLQ | Kidney Tissue Conc. (axitinib) ([1]; T = 6 h): T = 6 h: BLQ; also recorded: BLQ^b | IC50 (Caki-1): 28.7 µM | IC50 (786-O): 28.9 µM
SMILES: CNC(=O)c1ccccc1Sc1ccc2c(/C=C/c3ccccn3)n[nH]c2c1 [Axitinib, N-methyl-2-[[3-[(E)-2-pyridin-2-ylethenyl]-1H-indazol-6-yl]sulfanyl]benzamide]
IC50 (HK-2): 22.9 µM
